The target in experiment [1] is T1, full-length human GTF2IRD1 1α1 isoform fused to the GAL4 DNA-binding domain (pGBKT7-GTF2IRD1) (human) (UniProt Q9UHL9).
T1 sequence: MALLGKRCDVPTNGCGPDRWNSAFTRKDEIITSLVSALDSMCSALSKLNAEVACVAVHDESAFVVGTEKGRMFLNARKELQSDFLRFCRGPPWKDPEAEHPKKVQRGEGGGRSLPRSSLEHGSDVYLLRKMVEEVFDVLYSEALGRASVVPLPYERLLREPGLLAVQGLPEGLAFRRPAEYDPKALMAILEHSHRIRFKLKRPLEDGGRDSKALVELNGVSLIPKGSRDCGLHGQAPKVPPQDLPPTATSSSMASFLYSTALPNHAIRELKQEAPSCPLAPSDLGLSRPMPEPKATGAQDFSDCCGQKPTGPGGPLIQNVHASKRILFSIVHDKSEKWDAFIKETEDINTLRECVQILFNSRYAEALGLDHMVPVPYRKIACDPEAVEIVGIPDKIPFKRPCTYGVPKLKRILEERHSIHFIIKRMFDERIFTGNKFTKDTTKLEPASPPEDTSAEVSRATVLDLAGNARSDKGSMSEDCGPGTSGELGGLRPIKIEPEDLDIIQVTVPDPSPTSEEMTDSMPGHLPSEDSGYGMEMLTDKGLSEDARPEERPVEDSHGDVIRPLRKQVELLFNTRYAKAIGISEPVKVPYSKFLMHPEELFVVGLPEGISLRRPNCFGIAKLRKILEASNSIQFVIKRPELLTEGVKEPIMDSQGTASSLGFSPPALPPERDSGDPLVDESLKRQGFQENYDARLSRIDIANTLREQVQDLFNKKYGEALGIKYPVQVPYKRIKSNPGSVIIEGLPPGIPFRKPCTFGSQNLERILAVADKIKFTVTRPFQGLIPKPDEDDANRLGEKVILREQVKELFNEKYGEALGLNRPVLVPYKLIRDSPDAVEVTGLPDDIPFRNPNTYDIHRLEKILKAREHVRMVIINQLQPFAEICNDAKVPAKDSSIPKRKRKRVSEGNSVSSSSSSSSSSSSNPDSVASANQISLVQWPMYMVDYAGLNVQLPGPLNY
In words: two-hybrid; Matchmaker system; co-transformation of pGBKT7 bait and pGADT7 prey into S. cerevisiae AH109; double transformants from DDO plates re-spotted on QDO plates with x-α-galactosidase (HIS3, ADE2, MEL1 markers).

The chains behind the UniProt entries cited, without tags or fusion partners.
UniProt Q8C5D8: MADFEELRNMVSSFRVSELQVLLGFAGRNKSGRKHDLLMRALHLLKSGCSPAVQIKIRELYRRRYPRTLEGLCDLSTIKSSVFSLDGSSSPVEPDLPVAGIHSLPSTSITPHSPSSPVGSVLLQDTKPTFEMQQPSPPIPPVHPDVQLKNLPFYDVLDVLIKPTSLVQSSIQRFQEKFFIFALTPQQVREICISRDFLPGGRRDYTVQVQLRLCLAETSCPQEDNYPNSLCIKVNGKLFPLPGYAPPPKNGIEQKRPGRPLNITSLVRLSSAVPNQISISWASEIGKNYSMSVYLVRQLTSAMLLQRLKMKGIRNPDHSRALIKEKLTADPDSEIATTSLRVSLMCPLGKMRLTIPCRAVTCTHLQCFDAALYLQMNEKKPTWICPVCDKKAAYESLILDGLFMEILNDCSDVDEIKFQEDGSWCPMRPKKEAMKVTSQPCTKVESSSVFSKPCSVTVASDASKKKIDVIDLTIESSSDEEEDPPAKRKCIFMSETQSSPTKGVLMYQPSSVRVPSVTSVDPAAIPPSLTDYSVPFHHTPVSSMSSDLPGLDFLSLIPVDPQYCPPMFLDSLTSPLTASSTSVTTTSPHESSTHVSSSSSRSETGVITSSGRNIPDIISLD
UniProt P63280: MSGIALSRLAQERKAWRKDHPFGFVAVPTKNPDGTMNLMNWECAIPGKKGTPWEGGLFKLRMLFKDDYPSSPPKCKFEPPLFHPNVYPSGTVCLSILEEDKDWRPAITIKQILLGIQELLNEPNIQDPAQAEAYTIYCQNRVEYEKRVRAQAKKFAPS

In experiment [2] the target is T1, full-length human GTF2IRD1 1α1 isoform fused to the GAL4 DNA-binding domain (pGBKT7-GTF2IRD1) (human). Briefly: two-hybrid; library screen: universal normalized mouse cDNA library (Mate & Plate, Clontech) with pGBKT7-GTF2IRD1 as bait; QDO selection, α-galactosidase-positive colonies.
The target is the same in experiment [3]. In words: two-hybrid; Matchmaker system; co-transformation of pGBKT7 bait and pGADT7 prey into S. cerevisiae AH109; double transformants from DDO plates re-spotted on QDO plates with x-α-galactosidase (HIS3, ADE2, MEL1 markers). The source holds these as a separate data set.
The target of experiment [4] is T2, GFP-ZMYM5 (pEGFP-ZMYM5) (mouse) (UniProt Q3U2E2).
T2 sequence: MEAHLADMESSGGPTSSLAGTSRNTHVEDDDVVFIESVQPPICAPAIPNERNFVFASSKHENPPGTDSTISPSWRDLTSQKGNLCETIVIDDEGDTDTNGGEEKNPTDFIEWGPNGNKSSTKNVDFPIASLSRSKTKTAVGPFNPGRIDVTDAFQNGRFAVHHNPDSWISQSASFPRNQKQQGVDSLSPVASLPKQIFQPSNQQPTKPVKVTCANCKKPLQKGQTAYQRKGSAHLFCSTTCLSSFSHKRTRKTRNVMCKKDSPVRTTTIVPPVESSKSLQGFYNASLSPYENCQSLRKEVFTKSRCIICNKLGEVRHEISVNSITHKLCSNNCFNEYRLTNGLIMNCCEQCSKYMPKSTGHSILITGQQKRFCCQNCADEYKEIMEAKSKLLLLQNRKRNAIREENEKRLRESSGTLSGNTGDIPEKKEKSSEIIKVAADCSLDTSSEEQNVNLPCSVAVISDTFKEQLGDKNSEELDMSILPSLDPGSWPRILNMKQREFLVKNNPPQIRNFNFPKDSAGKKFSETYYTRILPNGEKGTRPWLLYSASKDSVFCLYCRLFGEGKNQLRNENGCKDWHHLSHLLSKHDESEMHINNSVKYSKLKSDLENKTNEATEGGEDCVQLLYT
Briefly: co-IP; HEK293 cells co-transfected; lysis in PBS with 0.1% Triton-X; immunoprecipitation with anti-GFP antibody on beads at 4°C overnight; blot with anti-Myc (Figure 4E) or anti-GTF2IRD1 (Figure 5B, cells also co-transfected with pMT3-HA-SUMO1).

Experiment [5] concerns the target GFP-PIASxβ (pEGFP-PIASxβ) (mouse) (UniProt Q8C5D8). Briefly: co-IP; HEK293 cells co-transfected with GFP-PIASxβ or EGFP and GTF2IRD1 or GTF2IRD1-2KR; immunoprecipitation with anti-GFP antibody; blot with anti-GTF2IRD1; densitometry of SUMOylated and non-SUMOylated bands.

No constants are given. Whether binding was seen depends on the method and setting. For some assays here: In cells and extracts the contact can be indirect. Some entries that bind do so weakly or less than the wild type. Tags and fused reporters may be left off the sequences shown.

Our source for the binding values is article PMC3493543.

“UBC9 fused to the GAL4 activation domain (pGADT7-UBC9) (from UniProt P63280 1-158) (enzyme)”: the binding entry in experiment [1] was “binds”.

B1: amino-terminal truncated ZMYM5 lacking the first 62 amino acids, prey clone isolated in the yeast 2-hybrid screen (pGADT7-ZMYM5) (domain or fragment, UniProt Q3U2E2 63-627)
chain: PPGTDSTISPSWRDLTSQKGNLCETIVIDDEGDTDTNGGEEKNPTDFIEWGPNGNKSSTKNVDFPIASLSRSKTKTAVGPFNPGRIDVTDAFQNGRFAVHHNPDSWISQSASFPRNQKQQGVDSLSPVASLPKQIFQPSNQQPTKPVKVTCANCKKPLQKGQTAYQRKGSAHLFCSTTCLSSFSHKRTRKTRNVMCKKDSPVRTTTIVPPVESSKSLQGFYNASLSPYENCQSLRKEVFTKSRCIICNKLGEVRHEISVNSITHKLCSNNCFNEYRLTNGLIMNCCEQCSKYMPKSTGHSILITGQQKRFCCQNCADEYKEIMEAKSKLLLLQNRKRNAIREENEKRLRESSGTLSGNTGDIPEKKEKSSEIIKVAADCSLDTSSEEQNVNLPCSVAVISDTFKEQLGDKNSEELDMSILPSLDPGSWPRILNMKQREFLVKNNPPQIRNFNFPKDSAGKKFSETYYTRILPNGEKGTRPWLLYSASKDSVFCLYCRLFGEGKNQLRNENGCKDWHHLSHLLSKHDESEMHINNSVKYSKLKSDLENKTNEATEGGEDCVQLLYT
B1: the binding entry in experiment [2] and in experiment [3] was “binds” in each case.

B2: GTF2IRD1, non-SUMOylated, untagged (pcDNA-GTF2IRD1) (protein, UniProt Q9UHL9 1-959)
chain: MALLGKRCDVPTNGCGPDRWNSAFTRKDEIITSLVSALDSMCSALSKLNAEVACVAVHDESAFVVGTEKGRMFLNARKELQSDFLRFCRGPPWKDPEAEHPKKVQRGEGGGRSLPRSSLEHGSDVYLLRKMVEEVFDVLYSEALGRASVVPLPYERLLREPGLLAVQGLPEGLAFRRPAEYDPKALMAILEHSHRIRFKLKRPLEDGGRDSKALVELNGVSLIPKGSRDCGLHGQAPKVPPQDLPPTATSSSMASFLYSTALPNHAIRELKQEAPSCPLAPSDLGLSRPMPEPKATGAQDFSDCCGQKPTGPGGPLIQNVHASKRILFSIVHDKSEKWDAFIKETEDINTLRECVQILFNSRYAEALGLDHMVPVPYRKIACDPEAVEIVGIPDKIPFKRPCTYGVPKLKRILEERHSIHFIIKRMFDERIFTGNKFTKDTTKLEPASPPEDTSAEVSRATVLDLAGNARSDKGSMSEDCGPGTSGELGGLRPIKIEPEDLDIIQVTVPDPSPTSEEMTDSMPGHLPSEDSGYGMEMLTDKGLSEDARPEERPVEDSHGDVIRPLRKQVELLFNTRYAKAIGISEPVKVPYSKFLMHPEELFVVGLPEGISLRRPNCFGIAKLRKILEASNSIQFVIKRPELLTEGVKEPIMDSQGTASSLGFSPPALPPERDSGDPLVDESLKRQGFQENYDARLSRIDIANTLREQVQDLFNKKYGEALGIKYPVQVPYKRIKSNPGSVIIEGLPPGIPFRKPCTFGSQNLERILAVADKIKFTVTRPFQGLIPKPDEDDANRLGEKVILREQVKELFNEKYGEALGLNRPVLVPYKLIRDSPDAVEVTGLPDDIPFRNPNTYDIHRLEKILKAREHVRMVIINQLQPFAEICNDAKVPAKDSSIPKRKRKRVSEGNSVSSSSSSSSSSSSNPDSVASANQISLVQWPMYMVDYAGLNVQLPGPLNY
For B2, the binding result in experiment [4] and in experiment [5] was “binds” each time.

B3: Myc-GTF2IRD1 (pMyc-GTF2IRD1) (protein, UniProt Q9UHL9 1-959)
chain: MALLGKRCDVPTNGCGPDRWNSAFTRKDEIITSLVSALDSMCSALSKLNAEVACVAVHDESAFVVGTEKGRMFLNARKELQSDFLRFCRGPPWKDPEAEHPKKVQRGEGGGRSLPRSSLEHGSDVYLLRKMVEEVFDVLYSEALGRASVVPLPYERLLREPGLLAVQGLPEGLAFRRPAEYDPKALMAILEHSHRIRFKLKRPLEDGGRDSKALVELNGVSLIPKGSRDCGLHGQAPKVPPQDLPPTATSSSMASFLYSTALPNHAIRELKQEAPSCPLAPSDLGLSRPMPEPKATGAQDFSDCCGQKPTGPGGPLIQNVHASKRILFSIVHDKSEKWDAFIKETEDINTLRECVQILFNSRYAEALGLDHMVPVPYRKIACDPEAVEIVGIPDKIPFKRPCTYGVPKLKRILEERHSIHFIIKRMFDERIFTGNKFTKDTTKLEPASPPEDTSAEVSRATVLDLAGNARSDKGSMSEDCGPGTSGELGGLRPIKIEPEDLDIIQVTVPDPSPTSEEMTDSMPGHLPSEDSGYGMEMLTDKGLSEDARPEERPVEDSHGDVIRPLRKQVELLFNTRYAKAIGISEPVKVPYSKFLMHPEELFVVGLPEGISLRRPNCFGIAKLRKILEASNSIQFVIKRPELLTEGVKEPIMDSQGTASSLGFSPPALPPERDSGDPLVDESLKRQGFQENYDARLSRIDIANTLREQVQDLFNKKYGEALGIKYPVQVPYKRIKSNPGSVIIEGLPPGIPFRKPCTFGSQNLERILAVADKIKFTVTRPFQGLIPKPDEDDANRLGEKVILREQVKELFNEKYGEALGLNRPVLVPYKLIRDSPDAVEVTGLPDDIPFRNPNTYDIHRLEKILKAREHVRMVIINQLQPFAEICNDAKVPAKDSSIPKRKRKRVSEGNSVSSSSSSSSSSSSNPDSVASANQISLVQWPMYMVDYAGLNVQLPGPLNY
In the case of B3, the binding result in experiment [4] is listed as “binds”.

B4: GTF2IRD1-2KR (K271R/K495R double mutant), untagged (pcDNA-2KR) (protein, UniProt Q9UHL9 1-959)
chain: MALLGKRCDVPTNGCGPDRWNSAFTRKDEIITSLVSALDSMCSALSKLNAEVACVAVHDESAFVVGTEKGRMFLNARKELQSDFLRFCRGPPWKDPEAEHPKKVQRGEGGGRSLPRSSLEHGSDVYLLRKMVEEVFDVLYSEALGRASVVPLPYERLLREPGLLAVQGLPEGLAFRRPAEYDPKALMAILEHSHRIRFKLKRPLEDGGRDSKALVELNGVSLIPKGSRDCGLHGQAPKVPPQDLPPTATSSSMASFLYSTALPNHAIRELRQEAPSCPLAPSDLGLSRPMPEPKATGAQDFSDCCGQKPTGPGGPLIQNVHASKRILFSIVHDKSEKWDAFIKETEDINTLRECVQILFNSRYAEALGLDHMVPVPYRKIACDPEAVEIVGIPDKIPFKRPCTYGVPKLKRILEERHSIHFIIKRMFDERIFTGNKFTKDTTKLEPASPPEDTSAEVSRATVLDLAGNARSDKGSMSEDCGPGTSGELGGLRPIRIEPEDLDIIQVTVPDPSPTSEEMTDSMPGHLPSEDSGYGMEMLTDKGLSEDARPEERPVEDSHGDVIRPLRKQVELLFNTRYAKAIGISEPVKVPYSKFLMHPEELFVVGLPEGISLRRPNCFGIAKLRKILEASNSIQFVIKRPELLTEGVKEPIMDSQGTASSLGFSPPALPPERDSGDPLVDESLKRQGFQENYDARLSRIDIANTLREQVQDLFNKKYGEALGIKYPVQVPYKRIKSNPGSVIIEGLPPGIPFRKPCTFGSQNLERILAVADKIKFTVTRPFQGLIPKPDEDDANRLGEKVILREQVKELFNEKYGEALGLNRPVLVPYKLIRDSPDAVEVTGLPDDIPFRNPNTYDIHRLEKILKAREHVRMVIINQLQPFAEICNDAKVPAKDSSIPKRKRKRVSEGNSVSSSSSSSSSSSSNPDSVASANQISLVQWPMYMVDYAGLNVQLPGPLNY
B4: the binding result in experiment [4] and in experiment [5] was “binds” each time.
